doi:10.1101/2023.06.27.545208
Results are given in words; binding and its absence hold for the method and conditions named. Binding seen in cells or lysates may run through a third protein. Some entries that bind do so weakly or less than the wild type. Sequences can lack the tags named with a protein.

Target: T1, epitope-tagged CTDNEP1 (human) (UniProt O95476)
T1 sequence: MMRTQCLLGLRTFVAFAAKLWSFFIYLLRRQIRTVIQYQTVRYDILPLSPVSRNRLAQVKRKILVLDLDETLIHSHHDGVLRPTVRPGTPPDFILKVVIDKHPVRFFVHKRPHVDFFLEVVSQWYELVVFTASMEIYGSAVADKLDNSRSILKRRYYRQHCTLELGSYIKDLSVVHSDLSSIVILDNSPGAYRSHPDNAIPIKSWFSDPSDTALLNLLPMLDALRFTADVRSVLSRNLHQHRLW
Assay: co-IP

B1: epitope-tagged TMEM255A (protein, UniProt Q5JRV8 1-349)
chain: MHQSLTQQRSSDMSLPDSMGAFNRRKRNSIYVTVTLLIVSVLILTVGLAATTRTQNVTVGGYYPGVILGFGSFLGIIGSNLIENKRQMLVASIVFISFGVIAAFCCAIVDGVFAARHIDLKPLYANRCHYVPKTSQKEAEEVISSSTKNSPSTRVMRNLTQAAREVNCPHLSREFCTPRIRGNTCFCCDLYNCGNRVEITGGYYEYIDVSSCQDIIHLYHLLWSATILNIVGLFLGIITAAVLGGFKDMNPTLPALNCSVENTHPTVSYYAHPQVASYNTYYHSPPHLPPYSAYDFQHSGVFPSSPPSGLSDEPQSASPSPSYMWSSSAPPRYSPPYYPPFEKPPPYSP
binding: binds
